Our source for the binding values is publication PMC11599018.

Chains of the proteins cited; added tags and fusions are not shown. Residues count along the entry.
UniProt P02769, residues 25-607: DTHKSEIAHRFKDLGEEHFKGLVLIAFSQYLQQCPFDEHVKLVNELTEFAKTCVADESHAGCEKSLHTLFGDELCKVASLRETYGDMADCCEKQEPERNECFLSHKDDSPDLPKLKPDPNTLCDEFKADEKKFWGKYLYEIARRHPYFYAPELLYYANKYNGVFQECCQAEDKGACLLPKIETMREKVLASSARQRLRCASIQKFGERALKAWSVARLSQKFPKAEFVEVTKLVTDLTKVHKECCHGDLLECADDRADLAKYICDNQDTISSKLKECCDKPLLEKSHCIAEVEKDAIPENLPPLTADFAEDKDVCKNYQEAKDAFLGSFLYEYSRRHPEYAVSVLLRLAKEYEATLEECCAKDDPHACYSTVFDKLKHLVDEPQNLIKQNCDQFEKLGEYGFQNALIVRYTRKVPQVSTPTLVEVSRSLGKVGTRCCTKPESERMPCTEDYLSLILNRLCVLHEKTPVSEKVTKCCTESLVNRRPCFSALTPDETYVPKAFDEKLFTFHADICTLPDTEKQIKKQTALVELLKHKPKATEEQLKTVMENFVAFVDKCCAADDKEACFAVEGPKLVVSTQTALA
UniProt P30530, residues 26-449: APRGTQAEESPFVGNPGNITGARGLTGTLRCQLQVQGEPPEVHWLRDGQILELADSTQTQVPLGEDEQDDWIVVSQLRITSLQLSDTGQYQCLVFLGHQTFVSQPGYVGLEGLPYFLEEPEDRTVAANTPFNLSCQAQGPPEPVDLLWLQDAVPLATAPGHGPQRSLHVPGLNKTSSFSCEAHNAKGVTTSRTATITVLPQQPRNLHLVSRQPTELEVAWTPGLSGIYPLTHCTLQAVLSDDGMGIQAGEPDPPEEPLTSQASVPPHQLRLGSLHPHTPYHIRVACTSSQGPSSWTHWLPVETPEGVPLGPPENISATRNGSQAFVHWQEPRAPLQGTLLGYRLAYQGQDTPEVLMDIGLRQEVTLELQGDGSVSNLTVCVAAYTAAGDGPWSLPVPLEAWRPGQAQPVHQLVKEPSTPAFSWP

No constants are given. Whether binding was seen depends on the method and setting.

This assay has as its target bovine serum albumin (bovine) (UniProt P02769). Kind of assay: AFM single molecule force spectro; both purified.

As to “Human Axl (from UniProt P30530 26-449) (receptor)”, the binding result is reported as “no binding”.
